{
  "source": "patent US20110301110A1",
  "about": "“TRIM33 (TIF1gamma) AS A NEW DIAGNOSTIC MARKER OF CHRONIC MYELOMONOCYTIC LEUKEMIA (CMML)” (priority 2010, published 2011)",
  "key": {"[1]": {"system": "chronic myelomonocytic leukemia (CMML)", "conditions": "recently shown; cited from earlier work"}, "[2]": {"system": "chronic myelomonocytic leukemia (CMML)", "experiment": "clinical outcome of CMML patients treated with decitabine", "format": "in vivo, human", "conditions": "one CMML patient expressing a very low Tif1γ level, after 5 cycles of decitabine"}, "[3]": {"system": "TIF1γ expression in sorted PB monocytes (CD14+ cells)", "experiment": "TIF1γ expression (RQ-PCR, immuno-blotting) in sorted PB monocytes (CD14+ cells) of a CMML patient before and after treatment with decitabine", "format": "in vivo, human", "conditions": "one patient treated with decitabine; purified monocytes (CD14+ cells), anti-TIF1γ antibody (FIG. 7B)", "experimental": "Protein extracts were prepared from purified human monocytes (CD14+ cells) for SDS-PAGE and immuno-blotting with anti-TIF1γ antibody. Equivalent loading of lanes was controlled by the use of an anti-HSC70 antibody."}, "[4]": {"system": "Tif1γ expression in PB monocytes from CMML patients", "experiment": "three days culture of PB monocytes from CMML patients in absence or presence of decitabine, Tif1γ expression by RQ-PCR", "format": "cell-based, human", "conditions": "three days exposure of PB monocytes from CMML patients; RQ-PCR (FIG. 6)"}},
  "note": "At least one compound was matched to its structure with a doubt left.",
  "data": [
    {"smiles": "Nc1ncn([C@H]2C[C@H](O)[C@@H](CO)O2)c(=O)n1", "note": "[decitabine, 4-amino-1-(2-deoxy-b-D-erythro-pentofuranosyl)-1,3,5-triazin-2(1 H)-one]", "values": [
      {"measurement": "share of CMML patients in whom the drug is a potentially efficient therapeutic", "setting": "[1]", "value": "about 30%"},
      {"measurement": "clinical response", "setting": "[2]", "value": "complete remission"},
      {"measurement": "TIF1γ protein expression (immuno-blotting)", "setting": "[3]", "value": "restored"},
      {"measurement": "expression of Tif1γ", "setting": "[4]", "value": "increased"}
    ]}
  ]
}
